Results from PMC9392266.
No constants are given. Whether binding was seen depends on the method and setting. In cells and extracts the contact can be indirect. Some entries that bind do so weakly or less than the wild type. Tags and fused reporters may be left off the sequences shown.

T1: PDS5A (mouse (endogenous in mESCs)) (UniProt Q6A026)
T1 sequence: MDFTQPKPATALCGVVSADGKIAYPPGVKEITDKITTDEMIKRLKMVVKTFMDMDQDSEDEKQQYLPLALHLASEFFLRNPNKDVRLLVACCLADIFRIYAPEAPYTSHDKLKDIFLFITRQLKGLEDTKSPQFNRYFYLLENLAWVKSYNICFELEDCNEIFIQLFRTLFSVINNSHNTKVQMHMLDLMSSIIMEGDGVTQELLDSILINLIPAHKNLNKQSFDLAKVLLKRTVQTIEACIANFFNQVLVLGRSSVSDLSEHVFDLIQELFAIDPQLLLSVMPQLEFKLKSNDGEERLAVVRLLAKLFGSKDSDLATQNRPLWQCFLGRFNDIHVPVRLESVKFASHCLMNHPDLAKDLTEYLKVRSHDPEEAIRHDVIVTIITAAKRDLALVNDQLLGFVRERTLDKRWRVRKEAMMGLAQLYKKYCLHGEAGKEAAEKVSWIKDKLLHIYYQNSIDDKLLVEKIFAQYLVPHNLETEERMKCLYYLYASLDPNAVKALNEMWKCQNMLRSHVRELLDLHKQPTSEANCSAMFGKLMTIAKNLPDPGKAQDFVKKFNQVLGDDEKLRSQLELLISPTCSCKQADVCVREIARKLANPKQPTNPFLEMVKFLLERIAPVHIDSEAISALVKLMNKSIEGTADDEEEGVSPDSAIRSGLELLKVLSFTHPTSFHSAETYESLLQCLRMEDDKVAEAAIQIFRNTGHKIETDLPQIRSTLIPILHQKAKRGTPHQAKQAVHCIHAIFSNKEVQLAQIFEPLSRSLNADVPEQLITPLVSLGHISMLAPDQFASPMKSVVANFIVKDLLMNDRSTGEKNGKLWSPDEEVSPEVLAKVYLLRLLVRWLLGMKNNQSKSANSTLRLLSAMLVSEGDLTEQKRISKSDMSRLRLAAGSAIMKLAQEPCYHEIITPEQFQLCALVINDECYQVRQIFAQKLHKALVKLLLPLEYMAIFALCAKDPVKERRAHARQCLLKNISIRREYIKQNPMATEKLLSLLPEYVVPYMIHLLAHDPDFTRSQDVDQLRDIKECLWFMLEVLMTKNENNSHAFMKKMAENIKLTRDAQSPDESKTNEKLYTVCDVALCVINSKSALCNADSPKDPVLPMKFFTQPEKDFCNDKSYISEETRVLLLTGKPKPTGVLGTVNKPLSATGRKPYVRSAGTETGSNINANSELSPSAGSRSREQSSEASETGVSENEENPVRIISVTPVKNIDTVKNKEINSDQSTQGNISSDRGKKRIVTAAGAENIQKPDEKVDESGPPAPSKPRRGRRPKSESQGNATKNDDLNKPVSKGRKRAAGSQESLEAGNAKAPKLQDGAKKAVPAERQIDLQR

T2: PDS5B (mouse (endogenous in mESCs)) (UniProt Q4VA53)
T2 sequence: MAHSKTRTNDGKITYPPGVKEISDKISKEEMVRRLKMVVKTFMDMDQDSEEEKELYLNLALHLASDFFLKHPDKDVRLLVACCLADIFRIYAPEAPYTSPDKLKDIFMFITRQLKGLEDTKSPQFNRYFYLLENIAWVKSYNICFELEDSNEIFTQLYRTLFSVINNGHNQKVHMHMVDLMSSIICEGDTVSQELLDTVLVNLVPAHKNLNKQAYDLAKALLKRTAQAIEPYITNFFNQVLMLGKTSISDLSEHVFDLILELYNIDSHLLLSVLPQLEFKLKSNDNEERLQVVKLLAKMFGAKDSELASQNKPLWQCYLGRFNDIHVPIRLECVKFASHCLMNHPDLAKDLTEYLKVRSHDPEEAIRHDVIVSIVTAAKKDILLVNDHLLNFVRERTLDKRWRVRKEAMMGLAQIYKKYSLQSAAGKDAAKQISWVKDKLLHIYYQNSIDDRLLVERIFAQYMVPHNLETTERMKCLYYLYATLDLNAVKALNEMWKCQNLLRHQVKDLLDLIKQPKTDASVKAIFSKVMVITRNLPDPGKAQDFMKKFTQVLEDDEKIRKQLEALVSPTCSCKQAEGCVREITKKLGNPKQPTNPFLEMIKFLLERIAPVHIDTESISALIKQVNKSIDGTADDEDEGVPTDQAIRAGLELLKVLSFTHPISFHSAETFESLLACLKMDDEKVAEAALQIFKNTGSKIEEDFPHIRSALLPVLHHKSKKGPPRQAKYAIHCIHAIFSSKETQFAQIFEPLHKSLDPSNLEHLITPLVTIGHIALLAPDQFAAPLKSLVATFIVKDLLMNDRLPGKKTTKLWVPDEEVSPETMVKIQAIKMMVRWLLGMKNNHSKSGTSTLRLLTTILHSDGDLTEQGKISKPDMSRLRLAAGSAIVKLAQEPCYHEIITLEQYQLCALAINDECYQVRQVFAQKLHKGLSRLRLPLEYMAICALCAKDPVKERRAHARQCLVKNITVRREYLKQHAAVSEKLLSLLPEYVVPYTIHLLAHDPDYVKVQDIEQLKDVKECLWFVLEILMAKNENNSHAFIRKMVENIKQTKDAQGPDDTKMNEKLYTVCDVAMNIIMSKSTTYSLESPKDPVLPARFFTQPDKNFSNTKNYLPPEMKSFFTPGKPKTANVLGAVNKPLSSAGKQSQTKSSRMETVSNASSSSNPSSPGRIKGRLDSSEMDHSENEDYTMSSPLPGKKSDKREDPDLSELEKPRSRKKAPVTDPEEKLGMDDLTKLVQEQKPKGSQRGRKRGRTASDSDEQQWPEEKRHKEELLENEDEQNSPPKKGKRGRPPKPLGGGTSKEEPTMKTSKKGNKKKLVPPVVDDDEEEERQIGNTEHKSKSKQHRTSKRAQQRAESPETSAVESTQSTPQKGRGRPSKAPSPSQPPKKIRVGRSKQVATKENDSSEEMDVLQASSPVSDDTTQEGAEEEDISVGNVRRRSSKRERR


Experiments:
[1] = target: T1, PDS5A (mouse (endogenous in mESCs)); assay: co-IP; WT mESC nuclear lysates (Benzonase-digested), 100 ug protein per IP, low stringency, native (uncrosslinked) conditions as per Active Motif Nuclear Complex Co-IP Kit; antibody on Protein G Dynabeads; western blot
[2] = target: T2, PDS5B (mouse (endogenous in mESCs)); assay: as above
[3] = target: T1, PDS5A (mouse (endogenous in mESCs)); assay: co-IP; WT mESC nuclear lysates (Benzonase-digested), 100 ug protein per IP, high stringency (high salt and detergent), native (uncrosslinked) conditions as per Active Motif Nuclear Complex Co-IP Kit; antibody on Protein G Dynabeads; western blot
[4] = target: T2, PDS5B (mouse (endogenous in mESCs)); assay: as above

| binding [1] | binding [2] | binding [3] | binding [4] | Binder |
| --- | --- | --- | --- | --- |
| binds | binds | binds | binds | STAG1 (protein, UniProt Q9D3E6 1-1258) MITSELPVLQDSTNETTAHSDAGSELEETEVKGKRKRGRPGRPPSTNKKPRKSPGEKSRIEAGIRGAGRGRANGHPQQNGDGDPVTLFEVVKLGKSAMQSVVDDWIELYKQDRDIALLDLINFFIQCSGCRGTVRIEMFRNMQNAEIIRKMTEEFDEDSGDYPLTMPGPQWKKFRSNFCEFIGVLIRQCQYSIIYDEYMMDTVISLLTGLSDSQVRAFRHTSTLAAMKLMTALVNVALNLSIHQDNTQRQYEAERNKMIGKRANERLELLLQKRKELQENQDEIENMMNSIFKGIFVHRYRDAIAEIRAICIEEIGVWMKMYSDAFLNDSYLKYVGWTLHDRQGEVRLKCLKALQSLYTNRELFPKLELFTNRFKDRIVSMTLDKEYDVAVEAIRLVTLILHGSEEALSNEDCENVYHLVYSAHRPVAVAAGEFLHKKLFSRHDPQAEEALAKRRGRNSPNGNLIRMLVLFFLESELHEHAAYLVDSLWESSQELLKDWECMTELLLEEPVQGEEAMSDRQESALIELMVCTIRQAAEAHPPVGRGTGKRVLTAKERKTQIDDRNKLTEHFIITLPMLLSKYSADAEKVANLLQIPQYFDLEIYSTGRMEKHLDALLKQIKFVVEKHVESDVLEACSKTYSILCSEEYTIQNRVDIARSQLIDEFVDRFNHSVEDLLQEGEEADDDDIYNVLSTLKRLTSFHNAHDLTKWDLFGNCYRLLKTGIEHGAMPEQIVVQALQCSHYSILWQLVKITDGSPSKEDLLVLRKTVKSFLAVCQQCLSNVNTPVKEQAFMLLCDLLMIFSHQLMTGGREGLQPLVFNPDTGLQSELLSFVMDHVFIDQDEENQSMEGDEEDEANKIEALHKRRNLLAAFSKLIIYDIVDMHAAADIFKHYMKYYNDYGDIIKETLSKTRQIDKIQCAKTLILSLQQLFNELVQEQGPNLDRTSAHVSGIKELARRFALTFGLDQIKTREAVATLHKDGIEFAFKYQNQKGQEYPPPNLAFLEVLSEFSSKLLRQDKKTVHSYLEKFLTEQMMERREDVWLPLISYRNSLVTGGEDDRMSVNSGSSSSKTSSVRSKKGRPPLHRKRVEDESLDNTWLNRTDTMIQTPGPLPTPQLTSTVLRENSRPMGEQIQEPESEHGSEPDFLHNPQMQISWLGQPKLEDLNRKDRTGMNYMKVRAGVRHAVRGLMEEDAEPIFEDVMMSSRSQLEDMNEEFEDTMVIDLPPSRNRRERAELRPDFFDSAAIIEDDSGFGMPMF |
| binds | binds | binds | binds | RAD21 (protein, UniProt Q61550 1-635) MFYAHFVLSKRGPLAKIWLAAHWDKKLTKAHVFECNLESSVESIISPKVKMALRTSGHLLLGVVRIYHRKAKYLLADCNEAFIKIKMAFRPGVVDLPEENREAAYNAITLPEEFHDFDQPLPDLDDIDVAQQFSLNQSRVEEITMREEVGNISILQENDFGDFGMDDREIMREGSAFEDDDMLVSTSASNLLLEPEQSTSNLNEKMNHLEYEDQYKDDNFGEGNDGGILDDKLISNNDGGIFDDPPALSEAGVMLPEQPAHDDMDEDDNGSLGGPDSPDSVDPVEPMPTMTDQTTLVPNEEEAFALEPIDITVKETKAKRKRKLIVDSVKELDSKTIRAQLSDYSDIVTTLDLAPPTKKLMMWKETGGVEKLFFLPAQPLWNNRLLKLFTRCLTPLVPEDLRKRRKGGEADNLDEFLKEFENPEVPREEQQPQQQQPQPQRDVIDEPIIEEPSRLQDSVMEASRTTIEESAMPPPPPQGVKRKAGQIDPEPSIPPQQVEQMEIPPVELPPEEPPNICQLIPELELLPEKEKEKEKEKEEEEEEEDEDASGGDQDQEERRWNKRTQQMLHGLQRALAKTGAESISLLELCRNTNRKQAAAKFYSFLVLKKQQAIELTQEEPYSDIIATPGPRFHII |
